In patent publication US20090137550A1, “Novel Compounds” (Glaxo Group Limited, priority 2005, published 2009):
Some results were stated once for a whole list of compounds, not compound by compound. For some of these results: At least one structure is not confirmed: it was looked up by name or label, or the drawing left a doubt.

Chains of the proteins cited; added tags and fusions are not shown.
UniProt Q16539, whole entry: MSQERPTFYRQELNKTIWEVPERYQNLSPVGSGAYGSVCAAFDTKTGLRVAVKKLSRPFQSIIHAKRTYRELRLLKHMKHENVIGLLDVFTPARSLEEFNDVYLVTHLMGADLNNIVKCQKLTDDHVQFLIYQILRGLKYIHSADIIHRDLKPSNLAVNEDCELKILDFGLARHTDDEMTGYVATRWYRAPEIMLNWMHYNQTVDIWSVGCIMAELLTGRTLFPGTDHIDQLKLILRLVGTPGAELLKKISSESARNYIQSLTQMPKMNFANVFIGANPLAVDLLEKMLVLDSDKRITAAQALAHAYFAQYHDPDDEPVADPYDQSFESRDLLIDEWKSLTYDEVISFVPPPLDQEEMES

How the values were obtained:
Recombinant human p38α = molecular target: T1, Recombinant human p38α (Homo sapiens, UniProt Q16539); experiment: Fluorescence Anisotropy Kinase Binding Assay (standard or low volume); parameters: key: active: pIC50 of greater than 4.6 up to a pIC50 of greater than 9.0; settings: 12 nM p38α, 5 nM fluorescent ligand; standard or low volume format not differentiated
T1 construct: GST; made in house

CSBP/p38 = molecular target: T2, CSBP/p38 (Homo sapiens, UniProt Q16539); experiment: CSBP/p38 Kinase Assay (32P transfer to T669 peptide); type: biochemical; parameters: key: active: IC50 of less than 16.7 uM to an IC50 less than 0.0001 uM; settings: 0.17 mM ATP, yeast-expressed p38, 25 min at 37° C.
T2 construct: made in house; host or cells: yeast

PDE4 = settings: cited from earlier work

SMILES	pIC50, fluorescence anisotropy kinase binding (Recombinant human p38α)	IC50, CSBP/p38 kinase activity (CSBP/p38)	IC50 ratio (IC50 for PDE4 form which binds rolipram with high affinity divided by IC50 for form which binds rolipram with low affinity) (PDE4)
N#CN=C(N)NCCNc1nc(-c2ccc(F)cc2F)c2ccc(=O)n(-c3ccccc3F)c2n1 [13(d), N-Cyano-N′-(2-{[-4-(2,4-difluorophenyl)-8-(2-fluorophenyl)-7-oxo-7,8-dihydropyrido[2,3-d]pyrimidin-2-yl]amino}ethyl)guanidine]	active		
CNC(=NC#N)NCCNc1nc(-c2ccc(F)cc2C)c2ccc(=O)n(-c3c(F)cccc3F)c2n1 [Example 11]	active	active	
COC(=O)C1CC(C#N)(c2ccc(OC(F)F)c(OCC3CC3)c2)CCC1=O (stereo not shown) [2-carbomethoxy-4-cyano-4-(3-cyclopropylmethoxy-4-difluoromethoxyphenyl)cyclohexan-1-one]			≥ 0.1
N#CC1(c2ccc(OC(F)F)c(OCC3CC3)c2)CCC(O)CC1 (stereo not drawn) [cis-[4-cyano-4-(3-cyclopropylmethoxy-4-difluoromethoxyphenyl)cyclohexan-1-ol]]			≥ 0.1
CCNC(=NC#N)NCCNc1nc(-c2ccc(F)cc2C)c2ccc(=O)n(-c3c(F)cccc3F)c2n1 [Example 12]	active	active	
Cc1ccccc1-c1nc(NCCNC(N)=NC#N)nc2c1ccc(=O)n2-c1c(F)cccc1F [14(e), N-Cyano-N′-(2-{[8-(2,6-difluorophenyl)-4-(2-methylphenyl)-7-oxo-7,8-dihydropyrido[2,3-d]pyrimidin-2-yl]amino}ethyl)guanidine]	active		
Cc1cc(F)ccc1-c1nc(NCCNC(N)=NC#N)nc2c1ccc(=O)n2-c1c(F)cccc1F [Example 10]	active	active	
N#CN=C(N)NCCNc1nc(-c2ccc(F)cc2F)c2ccc(=O)n(-c3c(F)cccc3F)c2n1 [16(c), N-Cyano-N′-(2-{[4-(2,4-difluorophenyl)-8-(2,6-difluorophenyl)-7-oxo-7,8-dihydropyrido[2,3-d]pyrimidin-2-yl]amino}ethyl)guanidine]	active		
COc1ccc([C@]2(C#N)CC[C@@H](C(=O)O)CC2)cc1OC1CCCC1 [cis 4-cyano-4-(3-cyclopentyloxy-4-methoxyphenyl)cyclohexan-1-carboxylic acid]			≥ 0.1
N#CN=C(N)NCCNc1nc(-c2ccc(F)cc2)c2ccc(=O)n(-c3c(F)cccc3F)c2n1 [15(c), N-Cyano-N′-(2-{[8-(2,6-difluorophenyl)-4-(4-fluorophenyl)-7-oxo-7,8-dihydropyrido[2,3-d]pyrimidin-2-yl]amino}ethyl)guanidine]	active		
